Survivor count and T/C data for 27 molecules are collected here from PubChem BioAssay AID248 (DTP/NCI, 2004).

SMILES strings stand for the structures. The list shows only some results of the screen, not a fair sample: it gathers tests that were run many times, whatever their T/C, doses with no T/C, and many T/C values between a quarter and a half above the control. Other doses and runs of a compound stand elsewhere. T/C gives the treated animals as a percentage of the vehicle group. Some entries give survivors of the animals treated and no T/C: the source holds a T/C of zero for them, seemingly a mark for toxic or unscored doses. Some doses without a T/C left all or most animals alive at the check, yet need not have been tolerated: survival well below the control is almost never listed, so the zero probably covers shortened survival too. Survivors were counted at the toxicity check, usually on the fifth day, unless a day is given; later deaths do not show. Schedules are NCI's codes, read here as Q, the interval in days (D) or hours (H), X, the number of doses. Some molecules as drawn cover several salts, stereoisomers or complexes of the source; a dose is that of the sample tested. Some schedules carry Z or #; the key to these is not given. Brackets with × give the number of equal values in this list. For survival time, the PubChem record calls one and a half times the control and up active, and a quarter to a half above the control has no call in these data; cut-offs in other NCI protocols can differ.

This experiment has as its system L1210 leukemia ip in BDF1 mice, survival T/C. Put plainly: NCI In Vivo Anticancer Drug Screen. Data for tumor model L1210 Leukemia (intraperitoneal) in B6D2F1 (BDF1) mice. The conditions noted are these: T/C endpoint: mean survival time, higher T/C = longer survival.
Where [1] appears, read: dose: 100.0 mg/kg/injection, schedule: Q01DX009 (ip), vehicle: Klucel (hydroxypropylcellulose) (HPC).
[2] abbreviates: dose: 200.0 mg/kg/injection, schedule: Q01DX009 (ip), vehicle: Klucel (hydroxypropylcellulose) (HPC).
The mark [3] stands for this setting: dose: 400.0 mg/kg/injection, schedule: Q04DX003 (ip), vehicle: Klucel (hydroxypropylcellulose) (HPC).
Setting [4] is: dose: 400.0 mg/kg/injection, schedule: Q04DX002 (ip), vehicle: Klucel (hydroxypropylcellulose) (HPC).
Setting [5] is: dose: 400.0 mg/kg/injection, schedule: Q01DX009 (ip), vehicle: saline with Tween-80.
[6] abbreviates: dose: 400.0 mg/kg/injection, schedule: Q01DX001 (ip), vehicle: saline.
The mark [7] stands for this setting: dose: 400.0 mg/kg/injection, schedule: Q01DX001 (ip), vehicle: carboxymethylcellulose (CMC).
[8] abbreviates: dose: 100.0 mg/kg/injection, schedule: Q04DX003 (ip), vehicle: saline with Tween-80.
Setting [9] is: dose: 400.0 mg/kg/injection, schedule: Q01DX009 (ip), vehicle: Klucel (hydroxypropylcellulose) (HPC).
The mark [10] stands for this setting: dose: 200.0 mg/kg/injection, schedule: Q01DX009 (ip), vehicle: saline.
The mark [11] stands for this setting: dose: 400.0 mg/kg/injection, schedule: Q01DX009 (ip), vehicle: saline.
The mark [12] stands for this setting: dose: 100.0 mg/kg/injection, schedule: Q04DX003 (ip), vehicle: saline.
Setting [13] is: dose: 200.0 mg/kg/injection, schedule: Q04DX003 (ip), vehicle: saline.
Setting [14] is: dose: 400.0 mg/kg/injection, schedule: Q04DX003 (ip), vehicle: saline.
Where [15] appears, read: dose: 100.0 mg/kg/injection, schedule: Q01DX009 (ip), vehicle: saline.

`ClC(Cl)(Cl)c1ccc(C(Cl)(Cl)Cl)cc1`: the survivor count is recorded as 1 of 6 under setting [1], 0 of 6 under setting [2] and 1 of 6 under setting [3].

For `O=C(NCC(O)CNC(=O)Nc1ccc(C2=NCCN2)cc1)Nc1ccc(C2=NCCN2)cc1`, the T/C is, setting by setting: (dose: 7.5 mg/kg/injection, schedule: Q01DX Z (ip), vehicle: carboxymethylcellulose (CMC)) 128 % of control; (dose: 42.0 mg/kg/injection, schedule: Q01DX Z (ip), vehicle: carboxymethylcellulose (CMC)) 145 % of control. In addition, the survivor count (dose: 168.0 mg/kg/injection, schedule: Q01DX Z (ip), vehicle: carboxymethylcellulose (CMC)) is recorded as 1 of 6.

As to `CCOC(C(=O)O)(c1ccccc1)c1ccccc1`, the survivor count under setting [4] was 1 of 3.

In the case of `CC1CC([O-])=N/[N+]1=C\c1ccccc1` (centres undefined), under setting [5], the survivor count was 0 of 6.

For `O=C(NC1CCCC1)c1ccc(C(=O)NC2CCCC2)cc1`, the survivor count under setting [6] was 1 of 4.

For `C/C(CC(=O)O)=C(\C)C(=O)O`, where the note is “dose: 400.0 mg/kg/injection, schedule: Q01DX009 (ip), vehicle: water”, the survivor count is reported as 1 of 6.

In the case of `Nc1ccc2c(c1)-n1cccc1C2=O`, the survivor count under setting [3] is recorded as 1 of 3.

In the case of `O=C1C2C3CCC(O3)C2C(=O)N1C(=O)N1C(=O)C2C3CCC(O3)C2C1=O` (centres undefined), the survivor count runs as follows: (dose: 200.0 mg/kg/injection, schedule: Q04DX002 (ip), vehicle: Klucel (hydroxypropylcellulose) (HPC)) 1 of 3; under setting [4], 0 of 3.

Regarding `CS(=O)(=O)OCCBr`, the survivor count reads like this: (dose: 200.0 mg/kg/injection, schedule: Q01DX001 (ip), vehicle: carboxymethylcellulose (CMC)) 0 of 6; under setting [7], 0 of 6.

Turning to `O=C(Oc1ccccc1Cl)c1ccccc1`, the survivor count under setting [5] is on record as 2 of 6.

As to `Cc1ccc(/C=C2\CC(C)(C)c3ccccc3C2=O)cc1`, the survivor count under setting [8] is recorded as 0 of 6.

For the molecule `O=[N+]([O-])c1cc(S(=O)(=O)Oc2ccccc2)ccc1Cl`, the survivor count by setting is: under setting [1], 1 of 6; under setting [2], 0 of 6; under setting [9], 0 of 6.

For `N#CC(C#N)=CN1CCCCCC1`, the survivor count runs as follows: under setting [8], 0 of 6; (dose: 200.0 mg/kg/injection, schedule: Q04DX003 (ip), vehicle: saline with Tween-80) 0 of 6; (dose: 400.0 mg/kg/injection, schedule: Q04DX003 (ip), vehicle: saline with Tween-80) 0 of 6.

For the molecule `ClC(Cl)(Cl)c1nc2nccnc2[nH]1`, the survivor count runs as follows: (dose: 200.0 mg/kg/injection, schedule: Q04DX003 (ip), vehicle: saline sonified) 4 of 6; (dose: 400.0 mg/kg/injection, schedule: Q04DX003 (ip), vehicle: saline sonified) 2 of 6.

Regarding `CCCCCCNC(=O)NC`, the survivor count under setting [9] is listed as 0 of 6.

Take `COc1ccc(NC(=O)Oc2ccc(Br)cc2Br)c(OC)c1`: the survivor count under setting [9] is 3 of 6.

In the case of `COC(C(=O)O)c1ccc(Br)cc1` (centres undefined), the survivor count (dose: 300.0 mg/kg/injection, schedule: Q01DX001 (ip), vehicle: acetone) was 3 of 6.

`NCCSSSSCCN`: under setting [6], the survivor count was 2 of 4.

In the case of `NCCc1cc(O)c(O)cc1O`, the survivor count by setting is: under setting [10], 3 of 6; under setting [11], 3 of 6.

In the case of `Oc1ccc(Cl)cc1/C=N\NC(=S)Nc1ccc2cn[nH]c2c1`, the survivor count under setting [7] is given as 0 of 4.

Turning to `COc1ccc2c(c1OC)C13CCCCC1C(C2)[N+](C)(C)CC3` (centres undefined), the survivor count is 0 of 6 under setting [1]; 6 of 6 (dose: 200.0 mg/kg/injection, schedule: Q04DX003 (ip), vehicle: Klucel (hydroxypropylcellulose) (HPC)); 6 of 6 under setting [3].

Consider `C1OC1CN1CCC(C2CCN(CC3CO3)CC2)CC1` (centres undefined), for which the T/C is, setting by setting: (dose: 0.92 mg/kg/injection, schedule: Q01DX009 (ip), vehicle: saline) 135 % of control; (dose: 1.4 mg/kg/injection, schedule: Q01DX009 (ip), vehicle: saline) 138 % of control; (dose: 3.3 mg/kg/injection, schedule: Q01DX009 (ip), vehicle: saline) 135 % of control; (dose: 4.9 mg/kg/injection, schedule: Q01DX009 (ip), vehicle: saline) 138 % of control; (dose: 7.0 mg/kg/injection, schedule: Q01DX009 (ip), vehicle: saline) 146 % of control; (dose: 10.0 mg/kg/injection, schedule: Q01DX001 (ip), vehicle: saline) 145 % of control. Moreover, the T/C (dose: 12.5 mg/kg/injection, schedule: Q01DX001 (ip), vehicle: saline) was 139 % of control; the T/C (dose: 15.0 mg/kg/injection, schedule: Q01DX001 (ip), vehicle: saline) is 141 % of control; the T/C (dose: 25.0 mg/kg/injection, schedule: Q01DX001 (ip), vehicle: saline) is 136 % of control; the T/C (dose: 30.0 mg/kg/injection, schedule: Q01DX001 (ip), vehicle: saline) is 141 % of control. In addition, the survivor count is 6 of 6 (dose: 60.0 mg/kg/injection, schedule: Q01DX009 (ip), vehicle: saline); 2 of 6 (dose: 100.0 mg/kg/injection, schedule: Q01DX001 (ip), vehicle: saline); 4 of 6 (dose: 120.0 mg/kg/injection, schedule: Q01DX001 (ip), vehicle: saline); 0 of 6 (dose: 200.0 mg/kg/injection, schedule: Q01DX001 (ip), vehicle: saline); 0 of 6 under setting [6].

Regarding `N=C(N)c1ccc(-c2nc3ccc(C(=N)N)cc3[nH]2)cc1`, the survivor count is recorded as 1 of 4 under setting [12], 0 of 4 under setting [13] and 0 of 4 under setting [14].

With `Cc1ccc(NC(=O)OCCN(C)C)cc1NC(=O)OCCN(C)C`, the survivor count (dose: 25.0 mg/kg/injection, schedule: Q01DX009 (ip), vehicle: saline) was 6 of 6; the survivor count under setting [15] is given as 3 of 6; the survivor count under setting [10] is 0 of 6 (2×); the survivor count under setting [11] was 0 of 6 (2×).

As for `CN(C)CCCN1c2ccccc2CCc2ccccc21`, the survivor count is, setting by setting: under setting [15], 5 of 6; under setting [12], 0 of 4; under setting [10], 0 of 6; under setting [13], 0 of 4; under setting [6], 0 of 6; under setting [11], 0 of 6. For the same molecule, under setting [14], the survivor count was 4 of 4.

With `COc1cc2c(c(OC)c1OC)-c1ccc(SC)c(=O)cc1C(NC1OC(CO)C(O)C(O)C1O)CC2` (centres undefined), the survivor count (dose: 200.0 mg/kg/injection, schedule: Q01DX005 (ip), vehicle: saline) is given as 2 of 4.

For the molecule `C[n+]1cccc2cc(Br)ccc21`, the survivor count by setting is: (dose: 80.0 mg/kg/injection, schedule: Q01DX001 (ip), vehicle: other) 0 of 6; (dose: 100.0 mg/kg/injection, schedule: Q01DX001 (ip), vehicle: other) 4 of 4; (dose: 200.0 mg/kg/injection, schedule: Q01DX001 (ip), vehicle: other) 0 of 4; (dose: 400.0 mg/kg/injection, schedule: Q01DX001 (ip), vehicle: other) 0 of 4.
